# Measured values published in PMC9091245.
# These are yes or no findings as the source states them, for the method shown. Binding seen in cells or lysates may run through a third protein. A yes stands for co-enrichment or nearness to the bait. Other partners may have been found.
# Molecular target: T1, family with sequence similarity 64, member A (FAM64A) (human) (UniProt Q9BSJ6)
# T1 sequence: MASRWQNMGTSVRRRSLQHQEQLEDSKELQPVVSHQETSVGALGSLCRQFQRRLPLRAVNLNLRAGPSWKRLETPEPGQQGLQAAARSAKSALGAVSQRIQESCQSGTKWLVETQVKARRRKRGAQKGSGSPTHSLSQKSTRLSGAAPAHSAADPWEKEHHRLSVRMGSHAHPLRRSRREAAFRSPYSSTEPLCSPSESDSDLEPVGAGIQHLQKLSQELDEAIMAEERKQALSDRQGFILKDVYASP
# Assay: affinity purification with mass spectrometry; Co-IP of FAM64A from HNSCC cells; immunocomplexes separated by SDS-PAGE and silver stained; candidate bands digested with trypsin and identified by LC-MS/MS
binder,measurement,value
"forkhead box protein M1 (FOXM1) (protein, UniProt Q08050 1-763) MKTSPRRPLILKRRRLPLPVQNAPSETSEEEPKRSPAQQESNQAEASKEVAESNSCKFPAGIKIINHPTMPNTQVVAIPNNANIHSIITALTAKGKESGSSGPNKFILISCGGAPTQPPGLRPQTQTSYDAKRTEVTLETLGPKPAARDVNLPRPPGALCEQKRETCADGEAAGCTINNSLSNIQWLRKMSSDGLGSRSIKQEMEEKENCHLEQRQVKVEEPSRPSASWQNSVSERPPYSYMAMIQFAINSTERKRMTLKDIYTWIEDHFPYFKHIAKPGWKNSIRHNLSLHDMFVRETSANGKVSFWTIHPSANRYLTLDQVFKPLDPGSPQLPEHLESQQKRPNPELRRNMTIKTELPLGARRKMKPLLPRVSSYLVPIQFPVNQSLVLQPSVKVPLPLAASLMSSELARHSKRVRIAPKVLLAEEGIAPLSSAGPGKEEKLLFGEGFSPLLPVQTIKEEEIQPGEEMPHLARPIKVESPPLEEWPSPAPSFKEESSHSWEDSSQSPTPRPKKSYSGLRSPTRCVSEMLVIQHRERRERSRSRRKQHLLPPCVDEPELLFSEGPSTSRWAAELPFPADSSDPASQLSYSQEVGGPFKTPIKETLPISSTPSKSVLPRTPESWRLTPPAKVGGLDFSPVQTSQGASDPLPDPLGLMDLSTTPLQSAPPLESPQRLLSSEPLDLISVPFGNSSPSDIDVPKPGSPEPQVSGLAANRSLTEGLVLDTMNDSLSKILLDISFPGLDEDPLGPDNINWSQFIPELQ",binding,binds
